From patent US20120034162A1 (William March Rice University, priority 2006, published 2012)

Experiment: general procedure: Fmoc solid-phase peptide synthesis; Rink amide resin; preloaded Wang resin (Novabiochem); HBTU/HOBt/DIEA; PyBOP/HOBt/DIEA for Baa
Settings: whole synthesis

“Baa-(Lys)10Lys(FITC)-Pro-Lys-Lys-Lys-Arg-Lys-Val-Ser-Cys-OH” gave an isolated mass of 98.3 mg and an isolated yield of 51.6%.

With “Baa-Arg-Gln-Ile-Lys-Ile-Trp-Phe-Gln-Asn-Arg-Arg-Met-Lys-Trp-Lys-Lys-OH” the isolated mass was 58.7 mg and the isolated yield was 36.9%.

For “Baa-Glu-Glu-Glu-Glu-Gly-Gly-Gly-Gly-Ser-Cys-OH”, the isolated mass was 8.0 mg and the isolated yield was 8.5%.

In the case of “Baa-Glu-Glu-Glu-Glu-Gly-Gly-Gly-Ser-CO2H (EEEEGGGS; N-terminal Baa fullerene amino acid; printed: Glu-Glu-Glu-Glu-Gly-Gly-Gly-Ser-)”, the isolated mass is reported as 21.8 mg and the isolated yield is reported as 24.9%.

“Baa-Glu-Ile-Ala-Gln-Leu-Glu-Tyr-Glu-Ile-Ser-Gln-Leu-Glu-Gln-Glu-Ile-Gln-Ala-Leu-Glu-Ser-NH2 (EIAQLEYEISQLEQEIQALES; N-terminal Baa fullerene amino acid; C-amide; printed: Glu-Ile-Ala-Gln-Leu-Glu-Tyr-Glu-Ile-Ser-Gln-Leu-Glu-Gln-Glu-Ile-Gln-Ala-Leu-Glu-Ser-)” showed an isolated mass of 8.8 mg and an isolated yield of 8.7%.

In the case of “Baa-Glu-Ile-Ala-Gln-Leu-Glu-Tyr-Glu-Ile-Ser-Gln-Leu-Glu-Gln-NH2 (EIAQLEYEISQLEQ; N-terminal Baa fullerene amino acid; C-amide; printed: Glu-Ile-Ala-Gln-Leu-Glu-Tyr-Glu-Ile-Ser-Gln-Leu-Glu-Gln-)”, the isolated mass is reported as 20.6 mg and the isolated yield is reported as 15.4%.

Work on “Baa-Lys(FITC)-Glu-Glu-Glu-Glu-Gly-Gly-Gly-Ser-CO2H (EEEEGGGS; N-terminal Baa-Lys(FITC); printed: Glu-Glu-Glu-Glu-Gly-Gly-Gly-Ser-)” yielded an isolated mass of 8.4 mg and an isolated yield of 7.4%.

In the case of “Baa-Lys(FITC)-Lys-Lys-Lys-Lys-Lys-Lys-Lys-Lys-CO2H”, the isolated mass is reported as 54.2 mg and the isolated yield is reported as 43.4%.

“Baa-Lys(FITC)-Pro-Lys-Lys-Lys-Arg-Lys-Val-Ser-Cys-OH” gave an isolated mass of 34.5 mg and an isolated yield of 27.3%.

“Glu-Ile-Ala-Gln-Leu-Glu-Baa-Glu-Ile-Ser-Gln-Leu-Glu-Gln-NH2” gave an isolated mass of 8.5 mg and an isolated yield of 6.8%.
